# Screen size: about 400,000 compounds; about 13,000 (3.2%) were called active. The inconclusive results got no clear call from the source; some entries with a clear call stand among them for comparison. Calls follow the shape of the dose curve; as a rule, active = well fitted cell-killing curve with a large enough effect; inconclusive = small, poorly fitted or top-dose-only effect, or effect the other way; inactive = flat fitted curve, though single readings scatter. Where the call is inconclusive, the potency comes from a doubtful curve fit.
# Assay: qHTS assay for MDR1-selective chemotherapeutics: Primary screen using the drug-selected MDR subline cells KB-V1; also: nearly all actives have a fitted effect of over 60% in size
# Settings: KB-V1 MDR cells viability, CellTiter-Glo, 72 h; series mostly up to 46.1 µM
# In short: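 Luminescent ATP read-out (CellTiter-Glo, 10 min) measures survival of drug-selected KB-V1 MDR cells after 72 h, 37 degrees C compound exposure. Medium: phenol-red-free DMEM, 10% FBS. Values from fitted concentration-response curves.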
# Potency is read from the fitted curve at half-maximal effect.
row,SMILES,Potency
1,COc1cc(C(=O)OCc2ccccc2C#N)ccc1OCC(=O)N1CCOCC1,"inconclusive: 3.66 µM [cytotoxic, partial curve, poor fit]"
2,O=c1c(C=Nc2ccc(Oc3ccccc3)cc2)c[nH]n1-c1cccc(Cl)n1,"inconclusive: 29.1 µM [cytotoxic, single point]"
3,O=C(CSc1nc(CCC2CCCC2)nc2ccccc12)NCc1ccc2c(c1)OCO2,"inconclusive: 18.4 µM [cytotoxic, partial curve, poor fit]"
4,c1ccc(COc2ccc(OCCCCN3CCCCC3)cc2)cc1,"inconclusive: 29.1 µM [cytotoxic, single point]"
5,C=CCNC(=S)NNC(=O)c1cccc2ccccc12,inactive
6,CC(C)(C)N(Cc1cc2ccccc2[nH]c1=O)C(=O)c1ccco1,"inconclusive: 8.2 µM [cytotoxic, partial curve]"
7,O=C(NCCNCc1ccccc1)c1ccco1,"inconclusive: 23.1 µM [cytotoxic, single point]"
8,O=C(Nc1cc(C(F)(F)F)cc(C(F)(F)F)c1)Nc1cnn(-c2ccc([N+](=O)[O-])cc2)c1C(F)(F)F,"inconclusive: 5.8 µM [cytotoxic, full curve, poor fit]"
9,Cc1ccc(S(=O)(=O)c2cnc(SCC(=O)Nc3cc(C)cc(C)c3)nc2N)cc1,"inconclusive: 23.1 µM [cytotoxic, single point]"
10,CCCNC(=O)c1ccc2c(c1)C1C3CCC(C3)C1C(c1ccccc1)N2 (centres undefined),active: 20.6 µM
11,COc1cc(C(=O)N(Cc2ccc(C)o2)C2CCS(=O)(=O)C2)cc(OC)c1OC (centres undefined),inactive
12,O=[N+]([O-])c1ncn(Cc2ccccc2Cl)n1,"inconclusive: 7.31 µM [rising, single point]"
13,CCN(CC)c1ccc(NC(=O)CSc2nnc(C)c(=O)[nH]2)cc1,"inconclusive: 29.1 µM [rising, single point]"
14,CCN(CC)c1ccc(NC(=O)c2ccccc2F)cc1S(=O)(=O)Nc1ccccc1OC,active: 9.2 µM
15,Oc1ccc(C[C@H]2CN([C@@H](Cc3ccccc3)CN3CCC[C@@H]3CN3C(=S)NC[C@@H]3Cc3ccccc3)C(=S)N2CC2CCCCC2)cc1,inactive
16,CSc1nc2ccc(Cl)cc2[nH]1,inactive
17,CN(C)S(=O)(=O)Oc1cc(Cl)ccc1C(=O)Nc1ccc(F)cc1F,"inconclusive: 29.1 µM [cytotoxic, single point]"
18,Cc1cc(C(=O)CN2CCC(C)CC2)c(C)n1-c1ccc(F)cc1,"inconclusive: 0.0052 µM [rising, full curve, poor fit]"
19,Cc1cccc2nc(-c3ccccc3)nc(N3CCC(O)(c4ccc(Cl)cc4)CC3)c12,"inconclusive: 29.1 µM [cytotoxic, single point]"
20,CC(C)c1nc2oc3c(NCc4cccnc4)ncnc3c2c2c1CCC2,"inconclusive: 29.1 µM [cytotoxic, single point]"
21,CCCN(CC(=O)Nc1ccccc1OC)C(=O)c1ccc(S(=O)(=O)Nc2ccccc2)cc1,"inconclusive: 16.4 µM [cytotoxic, single point]"
22,CCOc1ccc(CCN2C(=O)c3cccnc3C2=O)cc1OCC,"inconclusive: 29.1 µM [rising, single point]"
23,CCN(CC)c1ccc(/C=N/NC(=O)c2nnn(-c3nonc3N)c2CN(C)C2CCCCC2)cc1,inactive

row,SMILES,Potency
1,CCOC(=O)c1c(C)sc2c1N(C(=O)CCl)c1cc(Cl)ccc1S2,"inconclusive: 18.4 µM [cytotoxic, single point]"
2,NS(=O)(=O)c1ccc(NC(=O)COC(=O)c2cccc(S(=O)(=O)N3CCCC3)c2)cc1,inactive
3,CCOC(=O)C1CCN(Cc2cccc(Oc3ccc(Cl)cc3)c2)CC1,inactive
4,O=C(NC1CCCCC1)C(c1cccnc1)N(C(=O)CCl)c1cccc(Cl)c1 (centres undefined),active: 20.6 µM
5,O=C(c1ccc(F)cc1)N1CCN(c2ccc([N+](=O)[O-])c(N3CCCCC3)c2)CC1,"inconclusive: 9.2 µM [cytotoxic, partial curve, poor fit]"
6,NC(=O)c1nn(Cc2ccccc2)c(=O)c2ccccc12,"inconclusive: 18.4 µM [cytotoxic, single point]"
7,CCOC(=O)C1=C(COC(=O)C2CC(=O)N(c3ccc(C)cc3)C2)NC(=O)NC1C (centres undefined),inactive
8,COc1ccc(NC(=O)C2Cc3c(-c4ccc(Cl)cc4)ccnc3O2)cn1 (centres undefined),"inconclusive: 29.1 µM [cytotoxic, single point]"
9,CC1=CC(C)(C)Nc2ccc(OC(=O)CN3C(=O)c4cccc5cccc(c45)C3=O)cc21,inactive
10,Nc1nc(-c2ccccc2)cc(-c2ccccc2O)n1,"inconclusive: 29.1 µM [cytotoxic, single point]"
11,CC1CCN(C(=O)Cn2c(SCC(=O)Nc3nccs3)nc3ccccc32)CC1,active: 4.61 µM
12,COc1ccc(/C=C(/NC(=O)c2ccc(C)cc2)c2nc3ccccc3[nH]2)cc1OC,"inconclusive: 8.2 µM [cytotoxic, partial curve, poor fit]"
13,CCCCCn1cnc2sc(CC)cc2c1=O,active: 14.6 µM
14,CCOC(=O)c1cnc(SCC(=O)NCc2ccco2)nc1N,inactive
15,Cn1nc(-c2ccc(OCC(=O)Nc3cccnc3)cc2)c2ccccc2c1=O,"inconclusive: 3.66 µM [cytotoxic, partial curve, poor fit]"
16,c1ccc(CSc2nnc(NC3CCCCC3)s2)cc1,inactive
17,CCc1ccc(-c2nc(CN3CCC(C(=O)NCc4ccc(F)cc4)CC3)c(C)o2)cc1,"inconclusive: 35.5 µM [cytotoxic, partial curve, poor fit]"
18,CCOc1ccc(S(=O)(=O)N2CCCCC2)cc1NC(=O)Cc1ccc(OC)cc1,"inconclusive: 4.11 µM [cytotoxic, full curve, poor fit]"
19,O=C(/C=C/c1ccccc1)NC(=S)Nc1ccccc1O,inactive
20,CCOC1(OCC)OC(c2ccccc2)=C(C#N)C(C=Cc2ccccc2)C1(OCC)OCC (centres undefined),"inconclusive: 23.1 µM [cytotoxic, partial curve, poor fit]"
21,CCN(CC)S(=O)(=O)c1ccc(N/N=C/c2cccnc2)nc1,"inconclusive: 8.2 µM [cytotoxic, partial curve]"
22,COC(=O)c1ccc(CC2(C)C(=O)Nc3ccc(-c4cccc(C(F)(F)F)c4)cc32)o1 (centres undefined),"inconclusive: 29.1 µM [cytotoxic, single point]"
23,O=C(NCCCn1ccnc1)c1ccc(Cl)cc1,"inconclusive: 29.1 µM [rising, single point]"

# Pulled by structure from above (four):
row,SMILES,Potency
19,O=C(/C=C/c1ccccc1)NC(=S)Nc1ccccc1O,inactive
5,O=C(c1ccc(F)cc1)N1CCN(c2ccc([N+](=O)[O-])c(N3CCCCC3)c2)CC1,"inconclusive: 9.2 µM [cytotoxic, partial curve, poor fit]"
3,CCOC(=O)C1CCN(Cc2cccc(Oc3ccc(Cl)cc3)c2)CC1,inactive
14,CCOC(=O)c1cnc(SCC(=O)NCc2ccco2)nc1N,inactive

# (next part)

row,SMILES,Potency
1,CC1CC(NNC(=O)c2ccccc2)=Nc2ccccc2N1C (centres undefined),"inconclusive: 20.6 µM [cytotoxic, single point]"
2,O=C(Nc1nnc(SCc2ccc(F)cc2)s1)C1Cc2ccccc2CN1C(=O)c1ccco1 (centres undefined),inactive
3,COc1cccc(OCCCCn2c(-c3ccc(Cl)cc3)nc3ccccc3c2=O)c1,inactive
4,Cn1ncc2c(NNC(=O)c3ccc(Cl)cc3Cl)ncnc21,"inconclusive: 29.1 µM [cytotoxic, single point]"
5,CC[C@@H]1C(c2ccc(F)cc2)=NN(c2ccc(Br)cc2)[C@H]1C(=O)N1CCOC1=O,inactive
6,COc1ccc(NC(=O)C2C3C=CC4(O3)C2C(=O)N(CCN2CCCCC2)C4C(=O)NC2CCCC(C)C2C)cc1 (centres undefined),inactive
7,O=c1cc(Cl)c(-c2ccccc2)n[nH]1,"inconclusive: 32.6 µM [cytotoxic, single point]"
8,Cc1c(Cc2ccccc2)sc(NC(=O)Cc2ccccc2)c1C(N)=O,inactive
9,Cc1cc(C(=O)OCc2nnc(-c3ccccc3)o2)c(C)n1-c1ccccc1,"inconclusive: 20.6 µM [cytotoxic, single point]"
10,CC(C)CCNC(=O)C1(C)CCN1Cc1ccc2ccccc2c1 (centres undefined),"inconclusive: 20.6 µM [cytotoxic, single point]"
11,CC(=O)Nc1ccc(S(=O)(=O)NC2(C(F)(F)F)NC(=O)N(c3ccc(C)cc3)C2=O)cc1 (centres undefined),inactive
12,CSc1cccc(-n2cc(-c3ccc4c(c3)OCO4)[nH]c2=O)c1,active: 7.31 µM
13,CCc1ccc(CCC(=O)Nc2nnc(C)s2)o1,"inconclusive: 25.9 µM [cytotoxic, partial curve, poor fit]"
14,CCC(OC(=O)c1cc2sccc2n1C)C(=O)NCc1ccco1 (centres undefined),"inconclusive: 13 µM [cytotoxic, partial curve, poor fit]"
15,CC(C)c1nc2sc3c(NCc4ccco4)ncnc3c2c2c1COC(C)(C)C2,inactive
16,COc1ccc(-c2nn(-c3ccccc3)cc2C(=O)NCC(c2cccs2)N2CCOCC2)cc1 (centres undefined),"inconclusive: 4.11 µM [cytotoxic, full curve]"
17,O=C(Cc1cccc2ccccc12)NN1C(=O)C2C(C1=O)C1C=CC2C12CC2 (centres undefined),"inconclusive: 29.1 µM [cytotoxic, single point]"
18,CC(C)(C)/C(O)=C/c1nc2cc(Cl)ccc2oc1=O,inactive
19,CN=c1sc2ccccc2n1CC(O)COc1ccccc1 (centres undefined),active: 14.6 µM
20,CCCN(C(=O)c1cc(S(=O)(=O)N2CCCCC2)ccc1Cl)C1CCS(=O)(=O)C1 (centres undefined),"inconclusive: 18.4 µM [cytotoxic, partial curve, poor fit]"
21,C[C@@H]1CN([C@@H](C)CO)C(=O)c2cc(NC(=O)C3CC3)ccc2O[C@@H]1CN(C)Cc1ccc(Cl)c(Cl)c1,inactive
22,CC(=O)Nc1cccc(-c2csc(Nc3cccc(C)n3)n2)c1,active: 20.6 µM
23,C[C@@H](C(=O)Nc1ccc2c(c1)OCO2)n1c(=O)[nH]c2ccccc2c1=O,"inconclusive: 18.4 µM [rising, single point]"

# From PubChem BioAssay AID1347076 (National Center for Advancing Translational Sciences (NCATS), 2019)
